Construct, isoform or probe ends are uncertain for at least one entry.
What was measured:
[1] = target: WT SMARCAD1, phosphorylated V974A (human) (UniProt Q9H4L7); test: fluorescence polarization; conditions: FP: 50 mM HEPES pH 7.5, 2 mM DTT, 10% glycerol, 0.01% CHAPS, 0.01% NP-40, no added salt stated, room temperature 30 min, 10 nM nucleosome or DNA, 0-5 uM SMARCAD1, recombinant protein, residues 1-1026, protein details: 6xHis (C- or N-terminal)
[2] = target: Δ350 SMARCAD1, phosphorylated V974A,del1-350 (human) (UniProt Q9H4L7); test: fluorescence polarization; conditions: FP: 50 mM HEPES pH 7.5, 2 mM DTT, 10% glycerol, 0.01% CHAPS, 0.01% NP-40, no added salt stated, room temperature 30 min, 10 nM nucleosome or DNA, 0-5 uM SMARCAD1, recombinant protein, residues 351-1026, protein details: 6xHis

Amino acid sequences for entries named in this document (tags omitted). Residues count along the entry.
UniProt Q9H4L7, whole entry V974A: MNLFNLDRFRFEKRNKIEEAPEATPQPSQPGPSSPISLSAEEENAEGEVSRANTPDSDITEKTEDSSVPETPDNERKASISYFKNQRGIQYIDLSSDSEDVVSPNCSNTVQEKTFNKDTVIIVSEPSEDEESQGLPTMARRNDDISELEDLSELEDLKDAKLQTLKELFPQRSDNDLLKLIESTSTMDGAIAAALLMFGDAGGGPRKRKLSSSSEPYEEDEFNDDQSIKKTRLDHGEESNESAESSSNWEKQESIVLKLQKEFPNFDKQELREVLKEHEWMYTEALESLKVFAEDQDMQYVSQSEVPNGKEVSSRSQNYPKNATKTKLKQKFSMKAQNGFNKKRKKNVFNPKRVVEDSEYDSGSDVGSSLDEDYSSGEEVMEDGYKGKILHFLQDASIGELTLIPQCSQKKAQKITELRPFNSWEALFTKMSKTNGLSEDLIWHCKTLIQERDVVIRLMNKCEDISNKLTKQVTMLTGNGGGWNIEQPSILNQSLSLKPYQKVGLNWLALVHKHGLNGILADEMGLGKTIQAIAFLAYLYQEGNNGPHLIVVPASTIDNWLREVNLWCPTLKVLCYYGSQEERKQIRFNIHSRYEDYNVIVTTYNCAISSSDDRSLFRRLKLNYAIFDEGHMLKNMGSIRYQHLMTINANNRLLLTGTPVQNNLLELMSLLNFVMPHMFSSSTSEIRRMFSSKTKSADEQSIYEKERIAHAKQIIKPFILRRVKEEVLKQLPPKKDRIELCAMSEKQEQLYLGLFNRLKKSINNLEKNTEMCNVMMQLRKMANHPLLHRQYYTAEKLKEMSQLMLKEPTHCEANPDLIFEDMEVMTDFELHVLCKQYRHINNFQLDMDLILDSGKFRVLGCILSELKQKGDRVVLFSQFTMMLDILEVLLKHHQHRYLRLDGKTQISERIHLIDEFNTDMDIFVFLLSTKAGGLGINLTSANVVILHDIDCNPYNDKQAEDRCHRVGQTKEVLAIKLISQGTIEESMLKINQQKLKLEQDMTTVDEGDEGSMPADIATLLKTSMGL
UniProt Q9H4L7, 351-1026 V974A: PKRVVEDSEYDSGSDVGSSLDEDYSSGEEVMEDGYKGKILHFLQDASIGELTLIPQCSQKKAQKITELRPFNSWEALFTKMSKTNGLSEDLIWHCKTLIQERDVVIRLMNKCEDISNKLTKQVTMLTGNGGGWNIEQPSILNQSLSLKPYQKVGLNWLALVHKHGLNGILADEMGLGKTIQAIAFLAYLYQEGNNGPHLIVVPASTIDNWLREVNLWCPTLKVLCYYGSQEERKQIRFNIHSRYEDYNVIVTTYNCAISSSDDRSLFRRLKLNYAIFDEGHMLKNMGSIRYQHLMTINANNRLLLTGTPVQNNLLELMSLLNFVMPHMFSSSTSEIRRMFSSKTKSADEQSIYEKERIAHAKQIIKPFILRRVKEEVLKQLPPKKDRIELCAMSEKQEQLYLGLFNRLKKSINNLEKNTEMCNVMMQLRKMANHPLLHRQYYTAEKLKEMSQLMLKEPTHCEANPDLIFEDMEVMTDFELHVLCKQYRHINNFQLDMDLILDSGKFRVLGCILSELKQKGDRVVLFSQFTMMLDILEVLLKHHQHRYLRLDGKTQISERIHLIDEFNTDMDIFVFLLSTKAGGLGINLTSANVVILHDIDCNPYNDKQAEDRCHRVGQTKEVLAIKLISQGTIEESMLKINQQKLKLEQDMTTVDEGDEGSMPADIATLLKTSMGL

Sequence: CGAGCCAGGCCTGAGAATCCGGTGCCGAGGCCGCTCAATTGGTCGTAGACAGCTCTAGCACCGCTTAAACGCACGTACGCGCTGTCCCCCGCGTTTTAACCGCCAAGGGGATTACTCCCTAGTCTCCAGGCACGTGTCAGATATATACATCCAGGCCTTGTGTCG (double strand) [165 bp 601 DNA]
- Kd [1]: 98 nM
- Kd [2]: 105 nM
